These results are taken from publication PMC4928008.

Protein sequences, listed by entry. Tags and fused reporters are not part of them.
UniProt Q04206: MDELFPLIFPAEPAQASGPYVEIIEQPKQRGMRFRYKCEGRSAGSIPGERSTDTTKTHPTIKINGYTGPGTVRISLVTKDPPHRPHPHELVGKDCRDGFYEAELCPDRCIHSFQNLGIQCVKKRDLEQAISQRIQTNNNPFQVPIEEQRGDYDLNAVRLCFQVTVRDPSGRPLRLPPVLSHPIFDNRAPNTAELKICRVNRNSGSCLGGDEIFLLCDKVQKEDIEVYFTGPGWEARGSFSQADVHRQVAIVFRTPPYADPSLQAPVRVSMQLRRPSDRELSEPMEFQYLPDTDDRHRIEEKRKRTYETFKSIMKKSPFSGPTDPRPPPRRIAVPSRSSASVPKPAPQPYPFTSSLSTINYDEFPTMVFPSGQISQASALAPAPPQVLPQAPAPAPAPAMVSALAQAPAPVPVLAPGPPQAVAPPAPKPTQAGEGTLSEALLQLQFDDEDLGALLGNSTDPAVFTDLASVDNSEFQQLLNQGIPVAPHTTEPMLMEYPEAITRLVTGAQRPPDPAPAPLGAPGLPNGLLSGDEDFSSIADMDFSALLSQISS
UniProt O43474: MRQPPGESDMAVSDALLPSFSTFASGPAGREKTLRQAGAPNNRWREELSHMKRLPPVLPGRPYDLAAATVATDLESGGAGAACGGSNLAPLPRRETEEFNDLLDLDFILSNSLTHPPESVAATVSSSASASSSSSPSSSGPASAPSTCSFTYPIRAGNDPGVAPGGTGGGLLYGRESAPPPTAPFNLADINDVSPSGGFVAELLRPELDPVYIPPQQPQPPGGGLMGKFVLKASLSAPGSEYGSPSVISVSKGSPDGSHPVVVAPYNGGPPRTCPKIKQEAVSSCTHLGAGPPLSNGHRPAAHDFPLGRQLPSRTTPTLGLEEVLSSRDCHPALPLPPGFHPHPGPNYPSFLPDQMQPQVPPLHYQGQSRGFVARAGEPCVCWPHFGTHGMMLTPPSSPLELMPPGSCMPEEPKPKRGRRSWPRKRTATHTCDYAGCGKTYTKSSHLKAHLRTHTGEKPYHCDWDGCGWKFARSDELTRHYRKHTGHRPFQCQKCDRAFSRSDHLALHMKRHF

Results are given in words; binding and its absence hold for the method and conditions named. Binding seen in cells or lysates may run through a third protein. Some binding calls cover weakened binding; strength is not graded here.

The target in assay [1] is nuclear factor-kappa B p65 (human (endogenous in RA FLSs)) (UniProt Q04206). The experiment in a line: co-IP; nuclear extracts (50 μg) of RA FLSs incubated with anti-NF-κB-p65, anti-KLF4 or rabbit IgG (1 μg) in IP buffer (50 mM Tris-HCl pH 7.6, 150 mM sodium chloride, 1% Nonidet P-40, 0.5% sodium deoxycholate) at 4°C overnight; Sepharose G beads; immunoblotting. A general note: In western blotting, separated proteins are transferred to a membrane and probed.

Assay [2] has as its target Krüppel-like factor 4 (human (endogenous in RA FLSs)) (UniProt O43474). The assay is described as above.

In the case of “Krüppel-like factor 4 (from UniProt O43474 1-513)”, the binding entry in assay [1] is on record as “binds”.

Turning to “nuclear factor-kappa B p65 (from UniProt Q04206 1-551)”, in assay [2], the binding entry is “binds”.
